# Laboratory results reported in the supplement of paper PMC11348887.
# Where a name gives a salt, the structure may show the parent alone. The list shows a part of the results. Most entries show no effect beyond the scatter of the controls. Where a SMILES comes first, the peptide text is derived from it. Bridges are numbered along the chain shown (N, C = ends). [ ]: non-standard residue; d: D form. The star is where a group is joined. Orn = NCCC[C@H](N)C(=O)O; Cbz = O=C(OCc1ccccc1)*; Mpa = O=C(O)CCS; CH2F = FC*
# Experiments:
# Conditions in all cases: 5 µM; treatment: days 7-14 after plating, readout day 21
# [1] = system: hPSC-derived cortical neurons (WA09); experiment: nucleus area z-score vs screen plate; higher = larger nuclei (more mature)
# [2] = system: hPSC-derived cortical neurons (WA09); experiment: total neurite length per nucleus (MAP2) z-score; higher = more neurite growth
# [3] = system: hPSC-derived cortical neurons (WA09); experiment: nucleus roundness z-score vs screen plate; higher = rounder nuclei (more mature)
# [4] = system: hPSC-derived cortical neurons (WA09); experiment: KCl-induced FOS+/EGR-1+ double-positive nuclei fraction z-score (KCl minus unstimulated); higher = stronger activity-induced IEG response
Compound,nucleus area z-score [1],total neurite length per nucleus (z-score) [2],nucleus roundness z-score [3],KCl-induced FOS+/EGR-1+ double-positive nuclei fraction z-score [4]
CN1CCN(c2cc3c(cc2F)c(=O)c(C(=O)O)cn3-c2ccc(F)cc2)CC1 [Difloxacin HCl],0.507,0.0311,0.652,0.606
CCNC(=O)c1noc(-c2cc(C(C)C)c(O)cc2O)c1-c1ccc(CN2CCOCC2)cc1,-2.7,-2.17,0.0424,-1.31
O=C(/C=C/C=C/c1ccc2c(c1)OCO2)N1CCCCC1 [Piperine],0.475,1.3,1.05,0.0901
CCOCc1nc2c(N)nc3ccccc3c2n1CC(C)(C)O [Resiquimod],-0.361,-0.263,-0.0625,3.25
O=C(O)c1cc(=O)c2ccccc2o1 [Chromocarb],0.035,-0.3,-1.32,-0.075
Cc1ncc([N+](=O)[O-])n1CC(O)CCl (stereo not given) [Ornidazole],0.181,0.424,0.159,1.33
CC(C)(C)C[C@@H]1N[C@@H](C(=O)N[C@H]2CC[C@H](O)CC2)[C@H](c2cccc(Cl)c2F)[C@]12C(=O)Nc1cc(Cl)ccc12,-1.12,1.8,0.118,1.39
c1cnc2cc3c(cc2n1)[C@@H]1CNC[C@H]3C1 [Varenicline Tartrate],3.15,-0.0491,-0.103,0.12
N[C@@H]1CN(c2c(F)cc3c(=O)c(C(=O)O)cn([C@@H]4C[C@@H]4F)c3c2Cl)CC12CC2 [Sitafloxacin Hydrate],0.22,-0.0301,-0.0366,-0.264
CNC(=O)c1cc(COc2nnc(Nc3ccc(Cl)cc3)c3ccoc23)ccn1 [Telatinib],-0.253,-0.832,-1.49,-0.0056
CC[C@]12C=CCN3CC[C@@]4(c5cc([C@@]6(C(=O)OC)C[C@@H]7C[C@@H](C(C)(F)F)CN(Cc8c6[nH]c6ccccc86)C7)c(OC)cc5N(C)[C@H]4[C@@](O)(C(=O)OC)[C@@H]1OC(C)=O)[C@@H]32 [Vinflunine Tartrate],-14,-6.15,-8.96,-0.601
NC(CO)C(=O)NNCc1ccc(O)c(O)c1O (stereo not given) [Benserazide HCl],-0.554,0.599,0.98,1.01
"CO[C@H]1C[C@@H]2CC[C@@H](C)[C@@](O)(O2)C(=O)C(=O)N2CCCC[C@H]2C(=O)O[C@H]([C@H](C)C[C@@H]2CC[C@@H](OP(C)(C)=O)[C@H](OC)C2)CC(=O)[C@H](C)/C=C(\C)[C@@H](O)[C@@H](OC)C(=O)[C@H](C)C[C@H](C)/C=C/C=C/C=C/1C [Ridaforolimus (Deforolimus, MK-8669)]",-4.82,-1.49,-4.2,-0.784
Cc1cccc(C)c1NC(=O)C1CCCCN1C (stereo not given) [Mepivacaine HCl],0.203,-0.241,-0.174,0.246
CCC[C@H](N[C@@H](C)C(=O)N1[C@H](C(=O)O)C[C@@H]2CCCC[C@@H]21)C(=O)OCC [Perindopril Erbumine],1.04,-0.026,0.726,0.0342
OCc1c[nH]c2ccccc12 [Indole-3-carbinol],-0.559,-0.927,-1.28,-1.8
O=C(O)CCCCC(CCSCc1ccccc1)SCc1ccccc1 (stereo not given),0.428,0.152,0.357,-0.0465
OC(CCN1CCCC1)(c1ccccc1)C1CCCCC1 (stereo not given) [Procyclidine HCl],0.176,0.72,0.577,-0.42
CCN(CC)C(=O)N1CCN(C)CC1 [Diethylcarbamazine citrate],-0.146,0.139,-0.216,1.83
CCOc1ccc(C[C@H]2NC(=O)CCSSC[C@@H](C(=O)N3CCC[C@H]3C(=O)N[C@@H](CCCN)C(=O)NCC(N)=O)NC(=O)[C@H](CC(N)=O)NC(=O)[C@H]([C@@H](C)O)NC(=O)[C@H]([C@@H](C)CC)NC2=O)cc1 [Atosiban Acetate] ([Mpa][dY](Et)ITNCP[Orn]G-NH2; disulfide 1-6),-0.262,0.595,0.885,2.01
Cc1nc(Nc2ncc(C(=O)Nc3c(C)cccc3Cl)s2)cc(N2CCN(CCO)CC2)n1 [Dasatinib],1.3,0.0839,0.181,-0.175
NCCCC(N)(C(=O)O)C(F)F (stereo not given) [Eflornithine hydrochloride hydrate],0.889,0.166,0.386,1.26
CCCCCCCCCC(=O)N[C@H]1[C@H](Oc2c3cc4cc2Oc2ccc(cc2Cl)[C@@H](O[C@@H]2O[C@H](CO)[C@@H](O)[C@H](O)[C@H]2NC(C)=O)[C@@H]2NC(=O)[C@H](NC(=O)[C@@H]4NC(=O)[C@H]4NC(=O)[C@@H](Cc5ccc(c(Cl)c5)O3)NC(=O)[C@H](N)c3ccc(O)c(c3)Oc3cc(O)cc4c3)c3ccc(O)c(c3)-c3c(OC4O[C@H](CO)[C@@H](O)[C@H](O)[C@@H]4O)cc(O)cc3[C@@H](C(=O)O)NC2=O)O[C@H](CO)[C@@H](O)[C@@H]1O (stereo not given in full) [Teicoplanin],2.37,0.107,0.644,1.2
C[C@H]1[C@@H](O)O[C@@H]2O[C@@]3(C)CC[C@H]4[C@H](C)CC[C@@H]1[C@@]24OO3 [Dihydroartemisinin (DHA)],1.16,-0.6,-0.684,-0.734
COC(=O)Nc1nc2cc(Sc3ccccc3)ccc2[nH]1 [Fenbendazole],-0.61,-0.199,-0.299,0.586

Compound,nucleus area z-score [1],total neurite length per nucleus (z-score) [2],nucleus roundness z-score [3],KCl-induced FOS+/EGR-1+ double-positive nuclei fraction z-score [4]
NCC(=O)CCC(=O)O [5-Aminolevulinic acid HCl],-0.298,1.5,-0.065,0.389
COc1ccccc1C(=O)Nc1cc2c(cc1N1CCCC1)n(C)c(=O)n2C,1.78,-0.0388,0.381,0.275
CCCCN1CCCCC1C(=O)Nc1c(C)cccc1C (stereo not given) [Bupivacaine HCl],1.1,0.589,0.277,2.16
CC(C)NCC(O)COc1cccc2ccccc12 (stereo not given) [Propranolol HCl],0.123,-0.608,-0.556,-0.0118
CC(C)C[C@H](NC(=O)[C@H](Cc1ccccc1)NC(=O)c1cnccn1)B(O)O [Bortezomib (PS-341)],-6.67,-3.24,-4.78,1.32
CCC1=C[C@@H]2CN(C1)Cc1c([nH]c3ccccc13)[C@@](C(=O)OC)(c1cc3c(cc1OC)N(C)[C@H]1[C@@](O)(C(=O)OC)[C@H](OC(C)=O)[C@]4(CC)C=CCN5CC[C@]31[C@@H]54)C2 [Vinorelbine Tartrate],-12.2,-4.56,-7.12,-0.214
C#C[C@]1(O)CC[C@H]2[C@@H]3CCC4=CCCC[C@@H]4[C@H]3C(=C)C[C@@]21CC [Desogestrel],1.08,0.604,0.299,0.482
NC1=NCC2c3ccccc3Cc3ccccc3N12 (stereo not given) [Epinastine HCl],0.706,0.306,0.774,0.0384
Cc1cccc(Oc2cnc(=O)[nH]c2)c1,-0.766,0.948,0.281,0.792
Cn1nnc(-c2ccc(-c3ccc(N4C[C@H](COP(=O)(O)O)OC4=O)cc3F)cn2)n1 [Tedizolid Phosphate],0.228,0.804,0.164,-0.125
C[C@H](Cc1cc2c(c(C(N)=O)c1)N(CCCO)CC2)NCCOc1ccccc1OCC(F)(F)F [Silodosin],-0.0875,-0.178,-0.602,-1.62
COC(=O)C1=C(C)NC(C)=C(C(=O)OC(C)C)C1c1cccc2nonc12 (stereo not given) [Isradipine],-0.968,-1.55,-1.94,0.0863
Clc1ccc(C(Cn2ccnc2)OCc2c(Cl)cccc2Cl)c(Cl)c1 (stereo not given) [Isoconazole nitrate],-0.963,0.247,0.942,0.146
"CC(=O)C1=C(O)C=C2Oc3c(C(C)=O)c(O)c(C)c(O)c3C2(C)C1=O (single isomer, unassigned; (+)) [(+)-Usniacin]",-0.112,0.0528,1.22,0.334
CC(C)(C)Cn1c(N)nc2ccc(-c3[nH]c(C(C)(C)C)nc3-c3ccc(F)cc3)nc21,0.264,0.447,-0.313,0.536
C=C1/C(=C\C=C2/CCC[C@]3(C)[C@@H]([C@H](C)CCCC(C)C)CC[C@@H]23)C[C@@H](O)C[C@@H]1O [Alfacalcidol],0.768,-0.965,-0.898,0.302
C[C@H](NC(=O)/C(C#N)=C/c1cccc(Br)n1)c1ccccc1,-0.0171,0.012,-1.02,0.259
O=C(NCCO)c1cccc(-c2cc(Nc3ccc(OC(F)(F)F)cc3)ncn2)c1,0.2,0.785,0.362,0.175
CC(C)C[C@H](NC(=O)[C@H](Cc1ccccc1)C[C@@H](O)[C@H](Cc1ccccc1)NC(=O)OC(C)(C)C)C(=O)N[C@@H](Cc1ccccc1)C(N)=O,0.412,1.33,1.33,0.429
COC(=O)C[C@H](NC(=O)[C@H](C)NC(=O)[C@@H](NC(=O)OCc1ccccc1)C(C)C)C(=O)CF [Z-VAD-FMK (Caspase Inhibitor VI)] (Cbz-Val-Ala-Asp(OMe)-CH2F),0.0877,1.46,1.06,-0.103
Cc1cc(-n2c(=O)[nH]c(=O)n(C)c2=O)ccc1Oc1ccc(SC(F)(F)F)cc1 [Toltrazuril],-0.0206,-0.586,0.202,-0.218
CN(C)CCCn1cc(C2=C(c3c[nH]c4ccccc34)C(=O)NC2=O)c2ccccc21,-2.51,-1.57,-1.7,-0.63
O=NN(CCCl)C(=O)NC1CCCCC1 [Lomustine],-1.49,0.977,1.39,-0.898
CN(C)C(=S)NN=C(c1ccccn1)c1ccccn1,-17.5,-5.96,-5.31,-1.46
COc1cc(C2Oc3cc([C@H]4Oc5cc(O)cc(O)c5C(=O)[C@@H]4O)ccc3OC2CO)ccc1O (stereo not given in full) [Silibinin],-0.144,0.693,-0.0211,0.365

# Part of the list above in order of molar mass, smallest number first.
Compound,nucleus area z-score [1],total neurite length per nucleus (z-score) [2],nucleus roundness z-score [3],KCl-induced FOS+/EGR-1+ double-positive nuclei fraction z-score [4]
c1cnc2cc3c(cc2n1)[C@@H]1CNC[C@H]3C1 [Varenicline Tartrate],3.15,-0.0491,-0.103,0.12
Cc1cccc(C)c1NC(=O)C1CCCCN1C (stereo not given) [Mepivacaine HCl],0.203,-0.241,-0.174,0.246
NC(CO)C(=O)NNCc1ccc(O)c(O)c1O (stereo not given) [Benserazide HCl],-0.554,0.599,0.98,1.01
